Publication PMC5598907
These are yes or no findings as the source states them, for the method shown. In cells and extracts the contact can be indirect. Some binding calls cover weakened binding; strength is not graded here.

The chains behind the UniProt entries cited, without tags or fusion partners. Residues count along the entry.
UniProt Q9UBP4, residues 22-350: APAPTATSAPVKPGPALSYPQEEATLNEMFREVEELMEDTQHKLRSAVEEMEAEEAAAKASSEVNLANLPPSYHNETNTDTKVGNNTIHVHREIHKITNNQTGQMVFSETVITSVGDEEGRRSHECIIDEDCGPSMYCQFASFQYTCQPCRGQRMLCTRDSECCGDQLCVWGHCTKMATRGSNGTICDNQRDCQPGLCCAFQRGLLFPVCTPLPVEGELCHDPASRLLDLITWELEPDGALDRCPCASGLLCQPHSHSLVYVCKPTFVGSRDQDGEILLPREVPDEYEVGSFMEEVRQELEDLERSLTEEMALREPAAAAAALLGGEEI
UniProt Q01974, residues 34-943: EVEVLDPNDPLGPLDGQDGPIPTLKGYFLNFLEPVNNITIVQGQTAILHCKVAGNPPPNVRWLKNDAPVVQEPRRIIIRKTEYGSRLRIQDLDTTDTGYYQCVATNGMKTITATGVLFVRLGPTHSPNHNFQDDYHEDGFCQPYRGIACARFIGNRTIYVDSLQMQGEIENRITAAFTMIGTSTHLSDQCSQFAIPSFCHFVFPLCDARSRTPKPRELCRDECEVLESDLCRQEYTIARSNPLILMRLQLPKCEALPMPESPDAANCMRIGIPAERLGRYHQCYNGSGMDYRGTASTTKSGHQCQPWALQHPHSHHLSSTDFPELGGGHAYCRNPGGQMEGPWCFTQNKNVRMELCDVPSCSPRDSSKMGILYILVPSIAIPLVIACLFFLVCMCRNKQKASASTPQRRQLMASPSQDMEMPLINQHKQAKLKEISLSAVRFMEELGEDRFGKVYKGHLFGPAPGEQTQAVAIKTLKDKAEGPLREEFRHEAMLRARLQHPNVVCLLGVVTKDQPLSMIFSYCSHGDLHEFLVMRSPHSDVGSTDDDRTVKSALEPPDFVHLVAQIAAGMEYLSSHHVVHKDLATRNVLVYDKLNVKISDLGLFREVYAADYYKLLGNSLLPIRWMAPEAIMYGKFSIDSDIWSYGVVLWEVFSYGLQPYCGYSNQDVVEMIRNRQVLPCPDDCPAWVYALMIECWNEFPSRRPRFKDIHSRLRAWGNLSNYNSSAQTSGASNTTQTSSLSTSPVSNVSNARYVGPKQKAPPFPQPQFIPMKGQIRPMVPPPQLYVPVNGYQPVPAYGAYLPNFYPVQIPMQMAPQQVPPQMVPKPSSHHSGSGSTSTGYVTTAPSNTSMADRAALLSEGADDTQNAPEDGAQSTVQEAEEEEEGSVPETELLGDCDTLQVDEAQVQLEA

What was measured:
[1] = target: recombinant human dickkopf-related protein 3 (DKK3) (human) (UniProt Q9UBP4); experiment: co-IP; HUVECs stimulated with recombinant DKK3; immunoprecipitation of DKK3, Western blot analysis; only the target purified
[2] = target: human HA-tagged DKK3 secreted by adenovirus-transduced CHO cells (human) (UniProt Q9UBP4); experiment: co-IP; HUVECs stimulated with DKK3-CHO SN (supernatant of CHO cells overexpressing HA-tagged DKK3); immunoprecipitation of HA-binding protein, Western blot analysis

binding [1]: binds
binding [2]: binds
Substance: tyrosine kinase receptor ROR2 (from UniProt Q01974 34-943)
